The supplement of paper PMC4604168 (melanoma cell lines)
The list shows a part of the results. Single values are uncertain, as repeats are few or missing.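 The apoptosis fraction was the count of cleaved-PARP antibody-stained nuclei relative to all DNA-stained nuclei, imaged in 1,536-well plates. Screening doses were set so most cells survived, and baseline and induced cleaved-PARP levels vary greatly across cell lines.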

How the values were obtained:
Test in all cases: cleaved PARP positive nuclei fraction relative to DMSO control; melanoma cells; higher = more apoptosis
Conditions in all cases: library dose: low library concentration; 72 h
[1] = system: A101D
[2] = system: A2058
[3] = system: C32
[4] = system: CBRC008 (line from a melanoma biopsy)
[5] = system: CBRC014 (line from a melanoma biopsy)
[6] = system: CBRC016 (line from a melanoma biopsy)
[7] = system: CBRC017 (line from a melanoma biopsy)
[8] = system: COLO792
[9] = system: COLO800
[10] = system: COLO829
[11] = system: G361
[12] = system: IPC-298
[13] = system: IST-MEL1
[14] = system: LOXIMVI
[15] = system: A375
[16] = system: CBRC034 (line from a melanoma biopsy)
[17] = system: MEL-HO

Row | Structure (SMILES) | cleaved PARP positive nuclei fraction [1] [%] | cleaved PARP positive nuclei fraction [2] [%] | cleaved PARP positive nuclei fraction [3] [%] | cleaved PARP positive nuclei fraction [4] [%] | cleaved PARP positive nuclei fraction [5] [%] | cleaved PARP positive nuclei fraction [6] [%] | cleaved PARP positive nuclei fraction [7] [%] | cleaved PARP positive nuclei fraction [8] [%] | cleaved PARP positive nuclei fraction [9] [%] | cleaved PARP positive nuclei fraction [10] [%] | cleaved PARP positive nuclei fraction [11] [%] | cleaved PARP positive nuclei fraction [12] [%] | cleaved PARP positive nuclei fraction [13] [%] | cleaved PARP positive nuclei fraction [14] [%] | cleaved PARP positive nuclei fraction [15] [%] | cleaved PARP positive nuclei fraction [16] [%] | cleaved PARP positive nuclei fraction [17] [%]
1 | O=C(Nc1cc(C(F)(F)F)cc(C(F)(F)F)c1)c1cc(Cl)ccc1O + COc1ccc2c(c1)CCC1C2CCC2(C)C(NCCCCCCN3C(=O)C=CC3=O)CCC12 [U73122] (first compound 0.016 µM, partner dose 0.4 µM) | 7.46 | 41.8 | 140 | 38.1 | 95.7 | 154 | 98.8 | 60.4 | 124 | 414 | 39.3 | 45.5 | 48.7 | 100 | – | – | –
2 | Cc1cc(Nc2cc(N3CCN(C)CC3)nc(Sc3ccc(NC(=O)C4CC4)cc3)n2)n[nH]1 [Tozasertib] + N#CC[C@H](C1CCCC1)n1cc(-c2ncnc3[nH]ccc23)cn1 [ruxolitinib] (first compound 0.006 µM, partner dose 1 µM) | 136 | 66.2 | 64.4 | 104 | 82.5 | 64.2 | 108 | 100 | 119 | 92.7 | 103 | 85.3 | 142 | 123 | 101 | 181 | 34.1
3 | CCCCCCCCCCCCCCCCCCOP(=O)([O-])OC1CC[N+](C)(C)CC1 [Perifosine] + Cn1c(=O)n(-c2ccc(C(C)(C)C#N)cc2)c2c3cc(-c4cnc5ccccc5c4)ccc3ncc21 [NVP-BEZ235] (first compound 0.4 µM, partner dose 0.004 µM) | 119 | 94.8 | 67.4 | 119 | 82.5 | 102 | 112 | 40.7 | 64.6 | 106 | 164 | 163 | 132 | 310 | 348 | 49.1 | 84.6
4 | N#CC[C@H](C1CCCC1)n1cc(-c2ncnc3[nH]ccc23)cn1 [ruxolitinib] + NC(=O)c1ccc(N(C(N)=O)c2c(F)cccc2F)nc1-c1ccc(F)cc1F [VX702] (first compound 1 µM, partner dose 0.4 µM) | 80.8 | 39.6 | 81.4 | 64 | 89.2 | 125 | 119 | 101 | 67.1 | 80 | 108 | 171 | 67.8 | 95 | 154 | 145 | 146
5 | O=c1[nH]nc(Sc2ncc([N+](=O)[O-])s2)n1-c1ccc2c(c1)OCCO2 + Nc1nc(F)nc2c1ncn2[C@@H]1O[C@H](CO)[C@@H](O)[C@@H]1O [fludarabine] (first compound 0.2 µM, partner dose 0.2 µM) | 51 | 178 | 87.7 | 62.7 | 105 | 197 | 229 | 97.5 | 86.6 | 70 | 121 | 90.3 | 45.4 | 87.7 | 6460 | 87.2 | 117
6 | Cc1cc(Nc2cc(N3CCN(C)CC3)nc(Sc3ccc(NC(=O)C4CC4)cc3)n2)n[nH]1 [Tozasertib] + CC(C)CCN1c2nc(Nc3cc(F)c(O)c(F)c3)ncc2N(C)C(=O)C1C [BID1870] (first compound 0.006 µM, partner dose 0.2 µM) | 93.1 | 51 | 108 | 128 | 102 | 65.2 | 76.3 | 109 | 115 | 147 | 185 | 95.6 | 132 | 61.6 | – | – | –
7 | O=C(Nc1cc(C(F)(F)F)cc(C(F)(F)F)c1)c1cc(Cl)ccc1O + Cn1cc(/C=C2\C(=O)Nc3cccnc32)c2ccccc21 [GW441756] (first compound 0.016 µM, partner dose 0.4 µM) | 13.1 | 1380 | 174 | 63.8 | 88.6 | 32.5 | 81.6 | 77.6 | 130 | 126 | 97 | 46 | 38.1 | 51.5 | – | – | –
8 | COc1cc([C@@H]2c3cc4c(cc3[C@@H](O[C@@H]3O[C@@H]5CO[C@@H](C)O[C@H]5[C@H](O)[C@H]3O)[C@H]3COC(=O)[C@H]23)OCO4)cc(OC)c1O [etoposide] + COC(=O)c1sccc1S(=O)(=O)Nc1ccc(Nc2ccccc2)cc1OC [GSK0660] (first compound 0.02 µM, partner dose 1 µM) | 19.6 | 57 | 59.9 | 150 | 129 | 103 | 82 | 90.6 | 135 | 78.5 | 112 | 64.5 | 137 | 124 | – | – | –
9 | COc1cc([C@@H]2c3cc4c(cc3[C@@H](O[C@@H]3O[C@@H]5CO[C@@H](C)O[C@H]5[C@H](O)[C@H]3O)[C@H]3COC(=O)[C@H]23)OCO4)cc(OC)c1O [etoposide] + CCCS(=O)(=O)Nc1ccc(F)c(C(=O)c2c[nH]c3ncc(Cl)cc23)c1F [PLX4720] (first compound 0.02 µM, partner dose 0.08 µM) | 62.1 | 37.4 | 85.3 | 60.6 | 106 | 113 | 101 | 140 | 93.5 | 65.8 | 165 | 97.6 | 59.2 | 112 | 203 | 26.3 | 43.2
10 | N#CC[C@H](C1CCCC1)n1cc(-c2ncnc3[nH]ccc23)cn1 [ruxolitinib] + c1cc(-c2cnn3cc(-c4ccc(OCCN5CCCCC5)cc4)cnc23)ccn1 [Dorsomorphin] (first compound 1 µM, partner dose 0.4 µM) | 36.4 | 64.3 | 253 | 54.5 | 92.2 | 5620 | 82.1 | 150 | 56.4 | 33 | 63.3 | 48 | 69.7 | 245 | – | – | –
11 | N#CC[C@H](C1CCCC1)n1cc(-c2ncnc3[nH]ccc23)cn1 [ruxolitinib] + NC1(c2ccc(-c3nc4ccn5c(=O)[nH]nc5c4cc3-c3ccccc3)cc2)CCC1 [MK2206] (first compound 1 µM, partner dose 0.4 µM) | 37.5 | 147 | 75.6 | 138 | 92.1 | 103 | 90.1 | 135 | 31.1 | 101 | 178 | 110 | 199 | 214 | 102 | 43.4 | 156
12 | O=C(Nc1cc(C(F)(F)F)cc(C(F)(F)F)c1)c1cc(Cl)ccc1O + Cn1c(Nc2ccc(C(F)(F)F)cc2)nc2cc(Oc3ccnc(-c4ncc(C(F)(F)F)[nH]4)c3)ccc21 [CHIR265] (first compound 0.016 µM, partner dose 0.08 µM) | 57.8 | 168 | 33 | 138 | 117 | 185 | 102 | 233 | 56.7 | 53 | 118 | 110 | 33.4 | 152 | 249 | 164 | 57.3
13 | N#CC[C@H](C1CCCC1)n1cc(-c2ncnc3[nH]ccc23)cn1 [ruxolitinib] + CCN(CC)CCCCNc1ncc2cc(-c3cc(OC)cc(OC)c3)c(NC(=O)NC(C)(C)C)nc2n1 [PD173074] (first compound 1 µM, partner dose 0.1 µM) | – | 86.7 | 40 | 57.7 | 75 | 64.3 | 65.9 | 247 | 34.6 | 158 | 141 | 57.7 | 99.7 | 61.1 | – | – | –
14 | O=c1[nH]nc(Sc2ncc([N+](=O)[O-])s2)n1-c1ccc2c(c1)OCCO2 + CS(=O)(=O)c1ccc(C(=O)Nc2ccc(Cl)c(-c3ccccn3)c2)c(Cl)c1 [vismodegib] (first compound 0.2 µM, partner dose 1 µM) | 191 | 69.2 | 75.3 | 34.8 | 108 | 158 | 139 | 70.2 | 36.6 | 116 | 43.8 | 173 | 62.4 | 113 | 101 | 136 | 81.2
15 | N#CC[C@H](C1CCCC1)n1cc(-c2ncnc3[nH]ccc23)cn1 [ruxolitinib] + CCN(CC)CCNC(=O)c1c(C)[nH]c(/C=C2\C(=O)Nc3ccc(F)cc32)c1C [sunitinib] (first compound 1 µM, partner dose 0.4 µM) | 84.1 | 112 | 38.6 | 134 | 98 | 69.6 | 92 | 141 | 59.1 | 72.3 | 131 | 108 | 35 | 184 | 155 | 80.2 | 80.3
16 | O=C(Nc1cc(C(F)(F)F)cc(C(F)(F)F)c1)c1cc(Cl)ccc1O + C[C@]1(c2nc3c(C(N)=O)cccc3[nH]2)CCCN1 [Veliparib] (first compound 0.016 µM, partner dose 1.4 µM) | 105 | 120 | 62.1 | 121 | 95.9 | 147 | 101 | 119 | 79.3 | 160 | 41.6 | 185 | 111 | 68 | 136 | 64 | 226
17 | CC[C@]1(O)C[C@H]2CN(CCc3c([nH]c4ccccc34)[C@@](C(=O)OC)(c3cc4c(cc3OC)N(C=O)[C@H]3[C@@](O)(C(=O)OC)[C@H](OC(C)=O)[C@]5(CC)C=CCN6CC[C@]43[C@@H]65)C2)C1 [vincristine] + Nc1cccc2c1CN(C1CCC(=O)NC1=O)C2=O [lenalidomide] (first compound 0.0001 µM, partner dose 1 µM) | 137 | 388 | 102 | 117 | 96.4 | 130 | 101 | 128 | 77.9 | 168 | 93.1 | 180 | 62.7 | 195 | 126 | 123 | 40.7

No new results follow: entries from further up.
Row | Structure (SMILES) | cleaved PARP positive nuclei fraction [1] [%] | cleaved PARP positive nuclei fraction [2] [%] | cleaved PARP positive nuclei fraction [3] [%] | cleaved PARP positive nuclei fraction [4] [%] | cleaved PARP positive nuclei fraction [5] [%] | cleaved PARP positive nuclei fraction [6] [%] | cleaved PARP positive nuclei fraction [7] [%] | cleaved PARP positive nuclei fraction [8] [%] | cleaved PARP positive nuclei fraction [9] [%] | cleaved PARP positive nuclei fraction [10] [%] | cleaved PARP positive nuclei fraction [11] [%] | cleaved PARP positive nuclei fraction [12] [%] | cleaved PARP positive nuclei fraction [13] [%] | cleaved PARP positive nuclei fraction [14] [%] | cleaved PARP positive nuclei fraction [15] [%] | cleaved PARP positive nuclei fraction [16] [%] | cleaved PARP positive nuclei fraction [17] [%]
2 | Cc1cc(Nc2cc(N3CCN(C)CC3)nc(Sc3ccc(NC(=O)C4CC4)cc3)n2)n[nH]1 [Tozasertib] + N#CC[C@H](C1CCCC1)n1cc(-c2ncnc3[nH]ccc23)cn1 [ruxolitinib] (first compound 0.006 µM, partner dose 1 µM) | 136 | 66.2 | 64.4 | 104 | 82.5 | 64.2 | 108 | 100 | 119 | 92.7 | 103 | 85.3 | 142 | 123 | 101 | 181 | 34.1
3 | CCCCCCCCCCCCCCCCCCOP(=O)([O-])OC1CC[N+](C)(C)CC1 [Perifosine] + Cn1c(=O)n(-c2ccc(C(C)(C)C#N)cc2)c2c3cc(-c4cnc5ccccc5c4)ccc3ncc21 [NVP-BEZ235] (first compound 0.4 µM, partner dose 0.004 µM) | 119 | 94.8 | 67.4 | 119 | 82.5 | 102 | 112 | 40.7 | 64.6 | 106 | 164 | 163 | 132 | 310 | 348 | 49.1 | 84.6
